# Source: PubChem BioAssay AID540276 (National Center for Advancing Translational Sciences (NCATS), 2011)
# The campaign covered roughly 300,000 compounds. About 5,400 (1.8%) were called active. Inconclusive means that the source gave no clear call. Such entries were picked first, then a sample of the others. The call rests on the fitted dose curve; tested in HEK293 cells. Where the call is inconclusive, the potency comes from a doubtful curve fit.
# Test: qHTS for inhibitors of binding or entry into cells for Marburg Virus
# Details: Marburg virus pseudotyped entry inhibition, cell reporter; activity change, negative = inhibition: at 37.8 µM (top of the series) unless noted
# On the % scale 0 is the no-effect control and ±100 the full control effect; potency means the concentration at half of the fitted maximal effect.
Structure (SMILES),"activity change, negative = inhibition",Potency
Cc1cccc(C)c1-n1c(SCC(=O)NCc2ccco2)nc2ccccc2c1=O,inactive: 0.497%,
CC(C)c1ccc(CN(C)CC(O)c2ccccc2)cc1 (stereo not drawn),inactive: 2.66% [at 46.1 µM],
CC(C)(C)NC(=O)NC(=O)Cn1ccsc1=N,inactive: 10.9%,
Cc1ccc2[nH]c(=O)c(C3=NN(C(=O)CCC(=O)O)C(c4cccs4)C3)c(-c3ccccc3)c2c1 (stereo not drawn),,"inconclusive: 5.8 µM [inhibitor, single point]"
COc1ccc(C)cc1-n1nnnc1SCn1nnc2ccccc2c1=O,inactive: -24.8%,
CCc1ccc(/C=C/C(=O)c2cc(Br)ccc(=O)c2O)cc1,,"inconclusive: 25.1 µM [inhibitor, single point]"
Cc1cc(C(=O)CS(=O)(=O)c2ccccc2)cc(C)c1OC(=O)N(C)C,,"inconclusive: 3.16 µM [activator, partial curve, poor fit]"
CC(C)COC(=O)c1ccccc1N1C(=O)C2C3CCC(C3)C2C1=O (stereo not drawn),,"inconclusive: 2.59 µM [activator, full curve, poor fit]"
CCOc1cccc(-c2c(C(=O)N/N=C(\C)c3cccnc3)nnn2-c2nonc2N)c1,inactive: -2.09% [at 46.1 µM],
Fc1ccc(F)c(NC(=S)NCCc2ccccc2)c1,,"inconclusive: 14.1 µM [inhibitor, single point]"
CC(=O)Nc1ccc(-c2cn3c(n2)SCC3)cc1,,"inconclusive: 22.4 µM [activator, partial curve, poor fit]"
CCN1C(=NCCCCO)N[C@@H](c2cccc(C(F)(F)F)c2)C(C(=O)OC)=C1C,inactive: -18.6% [at 14.2 µM],
Cc1nc(SCC(=O)NCc2ccco2)c2c3c(sc2n1)CCCC3,inactive: -26.3%,
O=C(Oc1ccccc1)N1CCOCC1,,"inconclusive: 0.282 µM [inhibitor, partial curve, poor fit]"
NS(=O)(=O)c1ccc(Nc2nc(-c3cccnc3)cs2)cc1,,"inconclusive: 6.31 µM [inhibitor, single point]"
Cc1ccc(OCCCNC2CCCC2)cc1,inactive: 16.4%,
Cc1ccc(S(=O)(=O)N(C)C)cc1NC(=O)CN1C(=O)NC2(CCCc3ccccc32)C1=O (stereo not drawn),,"inconclusive: 3.16 µM [activator, partial curve, poor fit]"
COc1ccc(-n2ncc(N(C)n3cccc3)c(Cl)c2=O)cc1,,"inconclusive: 0.447 µM [activator, partial curve, poor fit]"
CCCS(=O)(=O)c1ncc(Cl)c(C(=O)Nc2scc(-c3ccccc3)c2C(=O)OCC)n1,,"inconclusive: 0.562 µM [inhibitor, full curve, poor fit]"
O=S(=O)(NC1CCCCC1N1CCC(O)CC1)c1ccccc1 (stereo not drawn),inactive: -10.2%,
COc1ccc(NC(=O)c2c([N+](=O)[O-])c(C(C)(C)C)nn2C)cc1,inactive: -13.9% [at 46.1 µM],
Cc1cc(-c2ccccc2)nc(Oc2cccc(C(F)(F)F)c2)c1S(C)(=O)=O,,"inconclusive: 5.62 µM [inhibitor, partial curve, poor fit]"

# Three of the compounds above, with tabs:
Structure (SMILES)	activity change, negative = inhibition	Potency
Cc1ccc2[nH]c(=O)c(C3=NN(C(=O)CCC(=O)O)C(c4cccs4)C3)c(-c3ccccc3)c2c1 (stereo not drawn)		inconclusive: 5.8 µM [inhibitor, single point]
COc1ccc(C)cc1-n1nnnc1SCn1nnc2ccccc2c1=O	inactive: -24.8%	
CCc1ccc(/C=C/C(=O)c2cc(Br)ccc(=O)c2O)cc1		inconclusive: 25.1 µM [inhibitor, single point]

# (cont.)

Structure (SMILES),"activity change, negative = inhibition",Potency
CN(CC(=O)Nc1cccc(F)c1)C(=O)c1ccc(N2C(=O)c3ccccc3C2=O)cc1,,"inconclusive: 0.631 µM [activator, full curve]"
CC(=O)N1CCN(C(=O)c2ccc(OC3CCN(CCc4ccccc4)CC3)cc2)CC1,,"inconclusive: 35.5 µM [inhibitor, single point]"
CC(C)c1ccc(CNc2nc(-c3ccco3)nn2S(=O)(=O)c2ccc3ccccc3c2)cc1,inactive: 22.8% [at 46.1 µM],
CCn1c(=O)c2c(nc(SCc3ccccn3)n2C)n(C)c1=O,,"inconclusive: 5.62 µM [activator, single point]"
O=C(CSc1nc(-c2ccccc2)cs1)NC(=O)NCc1ccco1,inactive: -13.8%,
CCOC(=O)c1ccccc1NC(=O)c1cn(-c2ccc(C)c(C)c2)c(=O)c2ccccc12,,"inconclusive: 1.41 µM [inhibitor, partial curve, poor fit]"
CC(C)CCN(C)C1CCN(S(=O)(=O)c2cccc(C(F)(F)F)c2)CC1,,"inconclusive: 25.1 µM [inhibitor, single point]"
C=CCNC(=O)C1CC=CCC1C(=O)O (stereo not drawn),,"inconclusive: 0.326 µM [inhibitor, partial curve, poor fit]"
O=[N+]([O-])c1ccccc1/C=N/Nc1nccnc1Cl,,"inconclusive: 0.0058 µM [activator, full curve, poor fit]"
O=C(CSc1ccccc1F)NCCN1C(=O)CSC1=O,,"inconclusive: 5.62 µM [inhibitor, single point]"
CCN1/C(=C2\OC(=S)N(C)C2=O)Sc2ccccc21,inactive: 0.143%,
COc1ccc(NC(=O)CC2C(=O)N(c3ccc(C)cc3)C(=O)N2CCc2ccccc2)cc1 (stereo not drawn),,"inconclusive: 17.8 µM [inhibitor, single point]"
CC1(C)c2ssc(=S)c2-c2ccccc2N1C(=O)CSC1=NCCS1,,"inconclusive: 14.6 µM [inhibitor, single point]"
COc1ccc(CC2(c3ccccc3)NC(=O)NC2=O)cc1 (stereo not drawn),,"inconclusive: 10 µM [inhibitor, partial curve, poor fit]"
CCc1ccc(CN2CCN(C(=O)c3cccc(OC)c3OC)CC2)cc1,,"inconclusive: 8.91 µM [inhibitor, partial curve]"
Cc1cc(C)cc(NC(=O)COc2ccc3c(C)c(Cc4ccccc4)c(=O)oc3c2)c1,inactive: -36.2%,
COc1ccc(NC(=O)CCn2c(=O)c3cccn3c3ccccc32)cc1,,"inconclusive: 35.5 µM [inhibitor, single point]"
Cc1ccc2nc(/C(C#N)=C/c3cn[nH]c3-c3ccc(F)cc3)[nH]c2c1,,"inconclusive: 7.94 µM [inhibitor, partial curve, poor fit]"
CN(C(=O)COC(=O)CCC(=O)c1ccccc1)c1c(N)n(Cc2ccccc2)c(=O)[nH]c1=O,,"inconclusive: 0.794 µM [inhibitor, single point]"
O=C(CSC1=Nc2ccccc2C2CC=NN12)NCc1ccco1 (stereo not drawn),,"inconclusive: 22.4 µM [inhibitor, partial curve, poor fit]"
Cc1cc(C(=O)N/N=C/c2c(C)[nH]n(-c3ccccc3)c2=O)n[nH]1,,"inconclusive: 5.62 µM [activator, single point]"
